Data as given in the supplement of paper PMC12823440, “Inhibitors supercharge kinase turnover through native proteolytic circuits” (Nature, 2025).
Where a name gives a salt, the structure may show the parent alone. Some of the results follow. Hit calls seldom repeat between salt and free forms of one compound.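 Kinases, fused to nanoluciferase, were expressed in K562 cells; luminescence was measured every 4 h from 2 to 18 h as percent of control (DMSO = 100%, positive control = 0%). A time point is decreased if signal falls significantly (2 sigma). Hits were called by the authors by a rule that is not shown; the count of time points alone does not decide it.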

Amino acid sequences for entries named in this document (tags omitted). A change or cut given only in a name is not applied to a line headed by its entry.
UniProt P21860, whole entry: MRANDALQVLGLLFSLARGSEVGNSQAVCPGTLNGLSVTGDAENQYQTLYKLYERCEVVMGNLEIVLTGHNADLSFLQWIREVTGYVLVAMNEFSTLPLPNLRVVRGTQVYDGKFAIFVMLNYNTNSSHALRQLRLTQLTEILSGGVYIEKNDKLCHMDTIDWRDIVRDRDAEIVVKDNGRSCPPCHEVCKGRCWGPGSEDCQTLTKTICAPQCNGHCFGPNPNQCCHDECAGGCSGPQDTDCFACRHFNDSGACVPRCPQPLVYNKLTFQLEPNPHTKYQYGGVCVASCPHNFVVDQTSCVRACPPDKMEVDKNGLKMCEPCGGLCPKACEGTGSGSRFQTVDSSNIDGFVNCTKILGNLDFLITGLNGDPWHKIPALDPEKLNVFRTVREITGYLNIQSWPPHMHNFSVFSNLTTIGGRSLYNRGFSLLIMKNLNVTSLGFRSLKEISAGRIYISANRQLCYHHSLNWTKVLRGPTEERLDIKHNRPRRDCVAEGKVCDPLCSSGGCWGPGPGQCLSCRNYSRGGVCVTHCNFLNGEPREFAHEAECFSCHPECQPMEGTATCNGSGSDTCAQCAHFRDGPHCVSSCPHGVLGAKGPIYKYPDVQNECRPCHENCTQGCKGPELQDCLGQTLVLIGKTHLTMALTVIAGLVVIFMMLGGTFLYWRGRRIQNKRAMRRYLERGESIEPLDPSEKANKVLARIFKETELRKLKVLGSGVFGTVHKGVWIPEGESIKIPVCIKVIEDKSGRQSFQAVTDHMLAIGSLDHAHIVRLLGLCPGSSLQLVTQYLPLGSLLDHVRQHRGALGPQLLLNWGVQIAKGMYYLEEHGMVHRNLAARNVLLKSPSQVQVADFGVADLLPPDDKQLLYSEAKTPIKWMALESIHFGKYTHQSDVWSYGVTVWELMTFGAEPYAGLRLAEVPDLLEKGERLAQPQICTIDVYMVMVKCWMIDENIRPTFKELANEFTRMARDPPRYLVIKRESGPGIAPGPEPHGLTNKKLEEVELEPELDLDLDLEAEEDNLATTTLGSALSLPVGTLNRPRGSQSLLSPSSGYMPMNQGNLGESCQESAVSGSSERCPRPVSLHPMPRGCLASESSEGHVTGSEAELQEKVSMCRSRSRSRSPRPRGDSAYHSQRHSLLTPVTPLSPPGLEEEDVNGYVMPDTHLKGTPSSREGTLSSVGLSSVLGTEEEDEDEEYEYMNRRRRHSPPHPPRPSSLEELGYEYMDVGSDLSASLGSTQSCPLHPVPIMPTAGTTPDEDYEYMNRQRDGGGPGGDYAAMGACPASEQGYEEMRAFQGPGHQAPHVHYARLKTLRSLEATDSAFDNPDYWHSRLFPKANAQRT
UniProt P11362, whole entry, looked up: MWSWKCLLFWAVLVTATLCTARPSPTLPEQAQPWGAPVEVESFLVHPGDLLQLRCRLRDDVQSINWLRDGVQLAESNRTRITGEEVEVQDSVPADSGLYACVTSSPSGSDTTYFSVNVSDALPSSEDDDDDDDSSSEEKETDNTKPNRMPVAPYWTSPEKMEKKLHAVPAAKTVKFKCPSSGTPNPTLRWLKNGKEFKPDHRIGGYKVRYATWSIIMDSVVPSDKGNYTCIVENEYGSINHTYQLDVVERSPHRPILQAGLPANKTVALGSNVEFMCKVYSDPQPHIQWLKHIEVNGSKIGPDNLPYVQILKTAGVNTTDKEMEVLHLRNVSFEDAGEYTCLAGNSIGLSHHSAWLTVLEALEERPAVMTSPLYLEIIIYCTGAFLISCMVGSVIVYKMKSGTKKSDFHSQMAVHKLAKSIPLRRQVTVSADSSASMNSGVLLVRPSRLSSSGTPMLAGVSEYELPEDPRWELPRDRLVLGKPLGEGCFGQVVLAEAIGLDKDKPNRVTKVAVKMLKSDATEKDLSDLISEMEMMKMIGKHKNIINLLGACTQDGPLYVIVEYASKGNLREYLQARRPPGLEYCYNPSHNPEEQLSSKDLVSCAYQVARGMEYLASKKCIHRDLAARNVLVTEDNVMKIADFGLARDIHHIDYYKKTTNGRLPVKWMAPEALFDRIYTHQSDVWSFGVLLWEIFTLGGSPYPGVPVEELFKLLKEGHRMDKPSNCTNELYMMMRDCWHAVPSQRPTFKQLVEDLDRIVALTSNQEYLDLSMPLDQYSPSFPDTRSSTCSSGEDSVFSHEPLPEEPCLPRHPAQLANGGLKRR
UniProt P21802, whole entry, looked up: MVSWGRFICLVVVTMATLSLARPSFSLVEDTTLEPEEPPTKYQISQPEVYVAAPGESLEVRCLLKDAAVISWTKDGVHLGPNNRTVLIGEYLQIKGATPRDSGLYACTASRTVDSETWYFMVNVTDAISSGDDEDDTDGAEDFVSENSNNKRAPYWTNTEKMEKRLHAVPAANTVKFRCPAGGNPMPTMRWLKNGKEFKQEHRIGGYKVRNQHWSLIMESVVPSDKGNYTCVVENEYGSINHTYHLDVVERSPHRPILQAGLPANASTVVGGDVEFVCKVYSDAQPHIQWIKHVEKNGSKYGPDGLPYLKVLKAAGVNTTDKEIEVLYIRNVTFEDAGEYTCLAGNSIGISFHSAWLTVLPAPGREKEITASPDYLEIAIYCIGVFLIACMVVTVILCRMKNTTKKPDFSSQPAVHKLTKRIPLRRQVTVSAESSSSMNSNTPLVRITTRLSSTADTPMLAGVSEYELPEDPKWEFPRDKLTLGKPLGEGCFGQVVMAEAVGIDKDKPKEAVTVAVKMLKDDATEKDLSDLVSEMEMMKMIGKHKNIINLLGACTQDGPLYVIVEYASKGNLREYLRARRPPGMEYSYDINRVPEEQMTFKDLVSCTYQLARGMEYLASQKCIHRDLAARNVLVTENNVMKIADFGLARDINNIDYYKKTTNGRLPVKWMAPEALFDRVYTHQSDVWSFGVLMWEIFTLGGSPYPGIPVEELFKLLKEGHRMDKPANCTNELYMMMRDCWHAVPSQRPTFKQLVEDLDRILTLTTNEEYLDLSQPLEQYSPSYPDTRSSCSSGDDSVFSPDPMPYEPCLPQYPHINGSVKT
UniProt P36888, whole entry: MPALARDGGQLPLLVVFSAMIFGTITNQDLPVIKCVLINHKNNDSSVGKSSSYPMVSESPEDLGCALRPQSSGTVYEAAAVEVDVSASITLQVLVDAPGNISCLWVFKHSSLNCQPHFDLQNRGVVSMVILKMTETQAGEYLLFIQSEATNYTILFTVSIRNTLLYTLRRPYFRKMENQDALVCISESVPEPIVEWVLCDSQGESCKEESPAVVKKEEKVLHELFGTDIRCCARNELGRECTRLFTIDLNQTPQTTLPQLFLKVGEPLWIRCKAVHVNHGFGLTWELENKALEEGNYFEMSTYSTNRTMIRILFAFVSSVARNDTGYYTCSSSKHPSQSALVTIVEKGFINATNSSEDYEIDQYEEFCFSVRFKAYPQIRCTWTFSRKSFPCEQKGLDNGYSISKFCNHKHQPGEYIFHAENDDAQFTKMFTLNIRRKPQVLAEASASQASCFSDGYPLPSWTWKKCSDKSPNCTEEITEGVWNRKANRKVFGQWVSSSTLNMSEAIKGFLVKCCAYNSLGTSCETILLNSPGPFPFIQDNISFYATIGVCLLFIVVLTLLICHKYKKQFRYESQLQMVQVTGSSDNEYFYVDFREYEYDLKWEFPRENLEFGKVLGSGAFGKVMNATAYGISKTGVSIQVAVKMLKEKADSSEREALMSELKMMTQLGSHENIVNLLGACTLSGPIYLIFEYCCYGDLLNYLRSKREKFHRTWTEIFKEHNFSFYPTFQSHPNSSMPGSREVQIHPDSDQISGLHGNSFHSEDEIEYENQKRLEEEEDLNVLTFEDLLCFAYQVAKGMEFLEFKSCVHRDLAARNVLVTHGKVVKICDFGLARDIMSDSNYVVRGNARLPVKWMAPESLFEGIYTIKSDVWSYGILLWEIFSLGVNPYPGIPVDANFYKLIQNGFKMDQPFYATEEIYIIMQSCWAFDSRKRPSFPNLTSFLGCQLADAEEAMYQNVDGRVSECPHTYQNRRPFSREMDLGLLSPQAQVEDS
UniProt P14616: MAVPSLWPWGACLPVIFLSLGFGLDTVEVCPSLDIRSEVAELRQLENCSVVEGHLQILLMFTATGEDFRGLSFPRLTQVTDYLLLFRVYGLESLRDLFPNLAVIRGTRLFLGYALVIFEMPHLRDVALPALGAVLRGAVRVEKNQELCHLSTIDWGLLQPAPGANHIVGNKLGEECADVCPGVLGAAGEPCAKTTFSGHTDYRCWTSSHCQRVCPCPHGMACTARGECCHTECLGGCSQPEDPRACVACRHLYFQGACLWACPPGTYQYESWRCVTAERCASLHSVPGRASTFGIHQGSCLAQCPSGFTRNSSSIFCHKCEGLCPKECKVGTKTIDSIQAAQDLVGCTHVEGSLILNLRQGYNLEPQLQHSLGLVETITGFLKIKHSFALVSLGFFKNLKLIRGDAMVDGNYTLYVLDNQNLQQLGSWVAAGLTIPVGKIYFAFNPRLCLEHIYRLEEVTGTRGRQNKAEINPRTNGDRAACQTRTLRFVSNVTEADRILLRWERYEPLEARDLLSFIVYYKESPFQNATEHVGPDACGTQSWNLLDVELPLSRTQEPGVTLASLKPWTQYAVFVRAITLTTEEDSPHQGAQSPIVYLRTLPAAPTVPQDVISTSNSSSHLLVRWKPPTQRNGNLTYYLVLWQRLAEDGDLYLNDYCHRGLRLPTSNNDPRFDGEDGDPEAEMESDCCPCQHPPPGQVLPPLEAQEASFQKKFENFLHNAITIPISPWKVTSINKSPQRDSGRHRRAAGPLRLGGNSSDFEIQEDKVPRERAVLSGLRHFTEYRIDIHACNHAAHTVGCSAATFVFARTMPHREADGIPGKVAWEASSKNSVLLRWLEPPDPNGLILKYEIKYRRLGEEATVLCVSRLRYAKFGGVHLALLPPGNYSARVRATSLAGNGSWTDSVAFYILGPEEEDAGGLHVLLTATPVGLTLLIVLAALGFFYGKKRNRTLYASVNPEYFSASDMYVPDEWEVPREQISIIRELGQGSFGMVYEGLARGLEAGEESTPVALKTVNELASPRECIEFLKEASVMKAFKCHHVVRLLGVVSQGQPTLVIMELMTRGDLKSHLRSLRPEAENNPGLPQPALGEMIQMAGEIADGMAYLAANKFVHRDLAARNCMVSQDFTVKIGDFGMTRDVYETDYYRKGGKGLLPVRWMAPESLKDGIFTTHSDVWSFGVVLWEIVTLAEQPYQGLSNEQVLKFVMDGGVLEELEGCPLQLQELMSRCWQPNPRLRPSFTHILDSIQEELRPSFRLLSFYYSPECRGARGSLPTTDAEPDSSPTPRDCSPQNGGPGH
UniProt Q9Y616: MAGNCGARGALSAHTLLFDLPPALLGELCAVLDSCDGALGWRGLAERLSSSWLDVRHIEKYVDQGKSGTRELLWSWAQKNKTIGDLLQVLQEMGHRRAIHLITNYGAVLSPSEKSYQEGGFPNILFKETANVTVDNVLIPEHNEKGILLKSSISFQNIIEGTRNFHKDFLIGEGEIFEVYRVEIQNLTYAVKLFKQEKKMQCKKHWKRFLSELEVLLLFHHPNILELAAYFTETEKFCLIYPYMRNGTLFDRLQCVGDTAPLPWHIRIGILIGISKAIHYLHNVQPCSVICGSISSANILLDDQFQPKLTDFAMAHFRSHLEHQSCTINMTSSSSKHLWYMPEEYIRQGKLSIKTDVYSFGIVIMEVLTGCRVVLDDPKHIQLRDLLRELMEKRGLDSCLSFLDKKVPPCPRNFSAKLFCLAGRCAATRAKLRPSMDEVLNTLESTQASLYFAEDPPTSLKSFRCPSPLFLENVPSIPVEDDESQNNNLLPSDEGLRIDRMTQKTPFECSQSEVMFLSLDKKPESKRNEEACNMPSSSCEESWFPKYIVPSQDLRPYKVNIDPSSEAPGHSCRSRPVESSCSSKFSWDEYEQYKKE
UniProt P06239: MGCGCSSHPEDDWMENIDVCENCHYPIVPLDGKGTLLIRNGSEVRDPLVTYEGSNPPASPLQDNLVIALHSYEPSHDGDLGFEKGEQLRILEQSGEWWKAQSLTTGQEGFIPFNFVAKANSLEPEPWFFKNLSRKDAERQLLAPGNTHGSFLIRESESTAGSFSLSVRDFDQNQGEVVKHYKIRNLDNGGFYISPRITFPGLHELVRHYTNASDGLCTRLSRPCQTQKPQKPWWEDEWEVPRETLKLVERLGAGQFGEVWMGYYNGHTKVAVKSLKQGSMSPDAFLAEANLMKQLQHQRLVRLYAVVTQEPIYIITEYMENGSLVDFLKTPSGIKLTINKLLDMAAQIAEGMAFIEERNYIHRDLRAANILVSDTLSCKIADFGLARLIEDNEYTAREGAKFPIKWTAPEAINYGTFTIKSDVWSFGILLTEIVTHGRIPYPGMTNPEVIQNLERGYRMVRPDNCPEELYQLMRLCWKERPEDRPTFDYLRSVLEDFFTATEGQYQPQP

Key:
Test in all cases: number of time points (of 5) at which kinase-Nluc abundance scored as decreased, DMSO-normalised (count); higher = more persistent destabilization
Details in all cases: K562; 2-18 h
[1] = biological target: EGFR_L861Q (UniProt P00533)
[2] = biological target: EGFR_T790M (UniProt P00533)
[3] = biological target: EPHA2 (UniProt P29317)
[4] = biological target: ERBB3 (UniProt P21860)
[5] = biological target: ERBB4_R711C (clone: ERBB4_mut) (UniProt Q15303)
[6] = biological target: ERN1 (UniProt O75460)
[7] = biological target: FGFR1 (UniProt P11362)
[8] = biological target: FGFR2 (UniProt P21802)
[9] = biological target: FGFR3 (UniProt P22607)
[10] = biological target: FGR (UniProt P09769)
[11] = biological target: FLT3 (UniProt P36888)
[12] = biological target: FYN (UniProt P06241)
[13] = biological target: GSK3A (UniProt P49840)
[14] = biological target: HER2 (UniProt P04626)
[15] = biological target: INSRR (UniProt P14616)
[16] = biological target: IRAK3 (UniProt Q9Y616)
[17] = biological target: JAK1 (UniProt P23458)
[18] = biological target: LCK (UniProt P06239)
[19] = biological target: LIMK1 (UniProt P53667)
[20] = biological target: LIMK2 (UniProt P53671)

Row | SMILES | number of time points [1] | number of time points [2] | number of time points [3] | number of time points [4] | number of time points [5] | number of time points [6] | number of time points [7] | number of time points [8] | number of time points [9] | number of time points [10] | number of time points [11] | number of time points [12] | number of time points [13] | number of time points [14] | number of time points [15] | number of time points [16] | number of time points [17] | number of time points [18] | number of time points [19] | number of time points [20]
1 | COC(=O)c1ccc2c(C(=Nc3ccc(N(C)C(=O)CN4CCN(C)CC4)cc3)c3ccccc3)c(O)[nH]c2c1 [Nintedanib] (2.5 µM) | 0 | 0 | 0 | 0 | 0 | 0 | 0 | 0 | 0 | 0 | 0 | 0 | 0 | 0 | 0 | 0 | 0 | 0 | 0 | 0
2 | CN(C)C(=O)/C(C#N)=C/c1ccc(-c2nc3cnc4[nH]ccc4c3n2C2CCCCC2)o1 (10 µM) | 0 | 0 | 0 | 0 | 0 | 0 | 0 | 0 | 0 | 0 | 0 | 0 | 0 | 0 | 0 | 0 | 0 | 0 | 0 | 0
3 | CC(C)(C#N)c1ccc(N2C(=O)OCc3cnc4ccc(-c5cnc6ccccc6c5)cc4c32)cc1 (2.5 µM) | 0 | 0 | 0 | 0 | 0 | 0 | 0 | 0 | 0 | 0 | 0 | 0 | 0 | 5 | 0 | 0 | 0 | 0 | 0 | 0
4 | c1cc(OCCN2CCCCC2)cc(-c2n[nH]c3ccc(-c4nnc[nH]4)cc23)c1 [CC-401 (hydrochloride)] (10 µM) | 0 | 0 | 0 | 0 | 0 | 0 | 0 | 0 | 0 | 0 | 0 | 0 | 0 | 0 | 0 | 0 | 0 | 0 | 0 | 0
5 | Cn1c(=O)n(-c2ccc(C(C)(C)C#N)cc2)c2c3cc(-c4cnc5ccccc5c4)ccc3ncc21 [Dactolisib (Tosylate)] (10 µM) | 0 | 0 | 0 | 3 | 4 | 0 | 0 | 3 | 3 | 0 | 4 | 4 | 0 | 0 | 3 | 3 | 4 | 0 | 4 | 4
6 | Cc1cccc(Cn2nc(C3CC3)c3c(NC(=O)c4cnc5cc(OCCN6CCN(C)CC6)ccn45)cccc32)n1 (10 µM) | 0 | 0 | 0 | 0 | 0 | 0 | 0 | 0 | 0 | 0 | 0 | 0 | 0 | 0 | 0 | 0 | 0 | 0 | 0 | 0
7 | NC(=O)c1ccc2nc(-c3ccc(Oc4ccc(Cl)cc4)cc3)[nH]c2c1 (10 µM) | 0 | 0 | 0 | 0 | 0 | 0 | 0 | 0 | 0 | 0 | 0 | 0 | 0 | 0 | 0 | 0 | 0 | 0 | 0 | 0
8 | Cn1nc(C(C)(C)C)cc1NC(=O)Nc1ccc(Oc2ccncc2)cc1 (10 µM) | 3 | 0 | 0 | 3 | 3 | 0 | 0 | 0 | 0 | 0 | 1 | 0 | 0 | 0 | 2 | 3 | 2 | 0 | 1 | 0
9 | Cc1c(NC(=O)c2cc3c(s2)CCCC3)cccc1-c1cn(C)c(=O)c(Nc2ccc([C@@H]3C(=O)N(C)CCN3C)cc2)n1 (10 µM) | 0 | 0 | 0 | 0 | 0 | 0 | 0 | 0 | 0 | 0 | 0 | 0 | 0 | 0 | 0 | 0 | 0 | 0 | 0 | 0
10 | COc1cc(Oc2ccnc3cc(OC)c(OC)cc23)ccc1NC(=O)NC(C)c1nccs1 (stereo not drawn) (2.5 µM) | 0 | 0 | 0 | 0 | 0 | 0 | 0 | 0 | 0 | 0 | 0 | 0 | 0 | 0 | 0 | 0 | 0 | 0 | 0 | 1
11 | O=C(Nc1cc(C(F)(F)F)ccc1N1CCN(Cc2ccccn2)CC1)c1ccc(-c2ccncc2)o1 (10 µM) | 0 | 0 | 0 | 0 | 0 | 0 | 0 | 0 | 0 | 0 | 0 | 0 | 0 | 5 | 0 | 0 | 0 | 0 | 0 | 0
12 | CC[C@H](CO)Nc1nc(NCc2ccccc2)c2ncn(C(C)C)c2n1 [Seliciclib] (10 µM) | 0 | 0 | 0 | 0 | 0 | 0 | 0 | 0 | 0 | 0 | 0 | 0 | 0 | 0 | 0 | 0 | 0 | 0 | 0 | 0
13 | CC1(C)CC=C(c2nc(C3CC(C)(C)OC(C)(C)C3)ccc2NC(=O)c2nc(C#N)c[nH]2)CC1 [Edicotinib] (2.5 µM) | 0 | 0 | 0 | 0 | 0 | 0 | 0 | 0 | 0 | 0 | 0 | 0 | 0 | 0 | 0 | 0 | 0 | 0 | 0 | 0
14 | CNC(=O)c1cccc(-c2ccc3c(N4CCOC[C@@H]4C)nc(N4CCOC[C@@H]4C)nc3n2)c1 [Vistusertib] (2.5 µM) | 4 | 0 | 0 | 3 | 4 | 0 | 5 | 4 | 4 | 0 | 4 | 3 | 0 | 3 | 4 | 3 | 4 | 0 | 4 | 4
15 | Nc1nc(OCC2CCCCC2)c2[nH]cnc2n1 (10 µM) | 0 | 0 | 0 | 0 | 0 | 0 | 0 | 0 | 0 | 0 | 0 | 0 | 0 | 0 | 0 | 0 | 0 | 0 | 0 | 0
16 | COc1cc(C(=O)NC2CCN(C)CC2)ccc1Nc1ncc2c(n1)N(C1CCCC1)CC(F)(F)C(=O)N2C (10 µM) | 0 | 0 | 0 | 0 | 0 | 0 | 0 | 0 | 0 | 0 | 0 | 0 | 0 | 0 | 0 | 0 | 0 | 0 | 0 | 0
17 | CNC(=O)c1cccc2cc(Oc3ccnc4cc(OCC5(N)CC5)c(OC)cc34)ccc12 [Lucitanib] (10 µM) | 0 | 0 | 0 | 0 | 0 | 0 | 0 | 0 | 0 | 0 | 0 | 0 | 0 | 0 | 0 | 0 | 0 | 0 | 0 | 0
18 | NC(=O)c1ccc(-c2nc(-c3ccccn3)c(-c3ccc4c(c3)OCO4)[nH]2)cc1 (10 µM) | 0 | 0 | 0 | 0 | 0 | 0 | 0 | 0 | 0 | 0 | 0 | 0 | 0 | 0 | 0 | 0 | 0 | 0 | 0 | 0
19 | CC(C)C(=O)Nc1ncc(-c2cc(C(F)F)nn2-c2c(Cl)cccc2Cl)s1 (10 µM) | 0 | 0 | 0 | 0 | 0 | 0 | 0 | 0 | 0 | 0 | 0 | 0 | 0 | 5 | 0 | 0 | 0 | 0 |  | 
20 | CN1CCN(c2ccc(Nc3cc(-c4cccc(-n5ccc6cc(C7CC7)cc(F)c6c5=O)c4CO)cn(C)c3=O)nc2)CC1 (2.5 µM) | 0 | 0 | 0 | 0 | 0 | 0 | 0 | 0 | 0 | 0 | 0 | 0 | 0 | 0 | 0 | 0 | 0 | 0 | 0 | 0
21 | CC(C)c1ccc2oc3nc(N)c(C(=O)O)cc3c(=O)c2c1 [Amlexanox] (10 µM) | 0 | 0 | 0 | 0 | 0 | 0 | 0 | 0 | 0 | 0 | 0 | 0 | 0 | 0 | 0 | 0 | 0 | 0 | 0 | 0
22 | CC(=O)N1CCN(c2ccc(OCC3COC(Cn4ccnc4)(c4ccc(Cl)cc4Cl)O3)cc2)CC1 (stereo not drawn) [Ketoconazole] (2.5 µM) | 0 | 0 | 0 | 0 | 0 | 0 | 0 | 0 | 0 | 0 | 0 | 0 | 0 | 0 | 0 | 0 | 0 | 0 | 0 | 0
23 | COCCOc1cc2nccc(Nc3n[nH]c(C)c3C)c2cc1S(=O)(=O)C(C)(C)C [RIP2 kinase inhibitor 2] (2.5 µM) | 0 | 0 | 0 | 0 | 0 | 0 | 0 | 0 | 0 | 0 | 0 | 0 | 0 | 0 | 0 | 0 | 0 | 0 | 0 | 0
24 | COc1cc2ncnc(Nc3ccc(O)cc3)c2cc1OC (10 µM) | 0 | 0 | 0 | 0 | 0 | 0 | 0 | 0 | 0 | 0 | 0 | 0 | 0 | 0 | 0 | 0 | 0 | 0 | 0 | 0

Full records as entered above. Order of values: number of time points [1]	number of time points [2]	number of time points [3]	number of time points [4]	number of time points [5]	number of time points [6]	number of time points [7]	number of time points [8]	number of time points [9]	number of time points [10]	number of time points [11]	number of time points [12]	number of time points [13]	number of time points [14]	number of time points [15]	number of time points [16]	number of time points [17]	number of time points [18]	number of time points [19]	number of time points [20]
Cn1nc(C(C)(C)C)cc1NC(=O)Nc1ccc(Oc2ccncc2)cc1 (10 µM) reads 3	0	0	3	3	0	0	0	0	0	1	0	0	0	2	3	2	0	1	0
CC(C)c1ccc2oc3nc(N)c(C(=O)O)cc3c(=O)c2c1 [Amlexanox] (10 µM) reads 0	0	0	0	0	0	0	0	0	0	0	0	0	0	0	0	0	0	0	0
